Holding throughout (experiment): two-hybrid; S. cerevisiae AH109 co-transformants (pGBKT7 and pGADT7), grown at 30°C, replated on non-selection (+HIS) and selection (−HIS) plates
Experiment [1] has as its target Rab7 (yeast two-hybrid fusion) (UniProt P51149).
The target in experiment [2] is T1, hVps18 (yeast two-hybrid fusion) (human) (UniProt Q9P253).
T1 sequence: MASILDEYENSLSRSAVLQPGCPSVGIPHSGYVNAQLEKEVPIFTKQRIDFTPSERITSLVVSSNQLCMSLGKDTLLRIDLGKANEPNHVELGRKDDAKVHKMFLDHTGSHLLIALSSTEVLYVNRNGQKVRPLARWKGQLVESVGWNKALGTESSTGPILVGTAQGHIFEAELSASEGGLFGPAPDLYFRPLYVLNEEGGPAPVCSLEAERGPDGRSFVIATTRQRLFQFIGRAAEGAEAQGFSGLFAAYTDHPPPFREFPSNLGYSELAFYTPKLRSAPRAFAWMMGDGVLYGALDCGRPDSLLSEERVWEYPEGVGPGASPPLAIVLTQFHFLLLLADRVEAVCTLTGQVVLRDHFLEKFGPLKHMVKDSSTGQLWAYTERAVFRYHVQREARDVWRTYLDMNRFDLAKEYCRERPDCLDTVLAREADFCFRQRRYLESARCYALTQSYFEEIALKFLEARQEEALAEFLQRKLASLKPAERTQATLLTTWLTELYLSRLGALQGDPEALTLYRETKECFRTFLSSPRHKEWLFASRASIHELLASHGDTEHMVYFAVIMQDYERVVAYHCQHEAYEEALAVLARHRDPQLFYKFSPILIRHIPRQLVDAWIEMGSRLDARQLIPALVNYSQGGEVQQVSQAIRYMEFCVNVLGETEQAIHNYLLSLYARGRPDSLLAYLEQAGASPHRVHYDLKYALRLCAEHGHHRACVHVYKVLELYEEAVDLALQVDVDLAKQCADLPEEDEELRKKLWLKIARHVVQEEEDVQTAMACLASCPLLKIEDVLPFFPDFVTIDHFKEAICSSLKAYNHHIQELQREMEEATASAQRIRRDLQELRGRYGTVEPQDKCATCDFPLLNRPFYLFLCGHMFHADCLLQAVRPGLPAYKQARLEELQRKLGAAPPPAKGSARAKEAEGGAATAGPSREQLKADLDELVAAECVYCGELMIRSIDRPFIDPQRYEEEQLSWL

Chains of the proteins cited; added tags and fusions are not shown.
UniProt P51149: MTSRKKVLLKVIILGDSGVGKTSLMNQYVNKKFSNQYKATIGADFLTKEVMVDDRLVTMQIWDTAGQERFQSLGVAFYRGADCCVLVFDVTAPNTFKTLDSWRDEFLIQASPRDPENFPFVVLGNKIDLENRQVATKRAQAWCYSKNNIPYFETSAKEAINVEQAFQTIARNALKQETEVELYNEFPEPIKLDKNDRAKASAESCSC

Experiment [3] concerns the target T2, SKIP (yeast two-hybrid fusion) (UniProt Q8IWE5).
T2 sequence: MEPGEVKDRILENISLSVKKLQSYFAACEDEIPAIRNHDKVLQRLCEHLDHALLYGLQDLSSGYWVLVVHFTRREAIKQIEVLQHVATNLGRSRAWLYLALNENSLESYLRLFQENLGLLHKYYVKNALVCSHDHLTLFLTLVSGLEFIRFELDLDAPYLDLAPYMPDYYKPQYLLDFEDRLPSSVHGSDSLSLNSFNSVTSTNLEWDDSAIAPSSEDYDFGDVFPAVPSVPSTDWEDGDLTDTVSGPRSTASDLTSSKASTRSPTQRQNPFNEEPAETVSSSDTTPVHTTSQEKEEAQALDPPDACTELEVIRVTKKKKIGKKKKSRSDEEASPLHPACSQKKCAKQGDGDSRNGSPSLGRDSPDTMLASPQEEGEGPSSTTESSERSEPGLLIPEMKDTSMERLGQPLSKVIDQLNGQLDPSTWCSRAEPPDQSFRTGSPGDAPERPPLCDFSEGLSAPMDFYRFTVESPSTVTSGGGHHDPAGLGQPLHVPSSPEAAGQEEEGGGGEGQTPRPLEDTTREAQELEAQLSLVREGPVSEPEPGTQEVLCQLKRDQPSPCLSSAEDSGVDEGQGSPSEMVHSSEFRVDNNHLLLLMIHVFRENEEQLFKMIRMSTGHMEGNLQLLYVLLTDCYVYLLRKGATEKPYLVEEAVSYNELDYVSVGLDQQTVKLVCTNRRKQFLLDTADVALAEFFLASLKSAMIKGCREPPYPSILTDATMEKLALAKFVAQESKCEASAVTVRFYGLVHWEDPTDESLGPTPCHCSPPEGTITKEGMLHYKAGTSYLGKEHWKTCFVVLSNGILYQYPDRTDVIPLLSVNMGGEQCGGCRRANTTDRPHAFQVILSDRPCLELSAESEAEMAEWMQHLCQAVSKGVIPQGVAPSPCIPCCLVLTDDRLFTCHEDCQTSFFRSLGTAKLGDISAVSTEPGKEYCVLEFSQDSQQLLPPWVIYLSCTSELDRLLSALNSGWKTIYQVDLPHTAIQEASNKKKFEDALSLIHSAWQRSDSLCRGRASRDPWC

Experiment [4] addresses T3, hVps41 (yeast two-hybrid fusion) (human) (UniProt P49754).
T3 sequence: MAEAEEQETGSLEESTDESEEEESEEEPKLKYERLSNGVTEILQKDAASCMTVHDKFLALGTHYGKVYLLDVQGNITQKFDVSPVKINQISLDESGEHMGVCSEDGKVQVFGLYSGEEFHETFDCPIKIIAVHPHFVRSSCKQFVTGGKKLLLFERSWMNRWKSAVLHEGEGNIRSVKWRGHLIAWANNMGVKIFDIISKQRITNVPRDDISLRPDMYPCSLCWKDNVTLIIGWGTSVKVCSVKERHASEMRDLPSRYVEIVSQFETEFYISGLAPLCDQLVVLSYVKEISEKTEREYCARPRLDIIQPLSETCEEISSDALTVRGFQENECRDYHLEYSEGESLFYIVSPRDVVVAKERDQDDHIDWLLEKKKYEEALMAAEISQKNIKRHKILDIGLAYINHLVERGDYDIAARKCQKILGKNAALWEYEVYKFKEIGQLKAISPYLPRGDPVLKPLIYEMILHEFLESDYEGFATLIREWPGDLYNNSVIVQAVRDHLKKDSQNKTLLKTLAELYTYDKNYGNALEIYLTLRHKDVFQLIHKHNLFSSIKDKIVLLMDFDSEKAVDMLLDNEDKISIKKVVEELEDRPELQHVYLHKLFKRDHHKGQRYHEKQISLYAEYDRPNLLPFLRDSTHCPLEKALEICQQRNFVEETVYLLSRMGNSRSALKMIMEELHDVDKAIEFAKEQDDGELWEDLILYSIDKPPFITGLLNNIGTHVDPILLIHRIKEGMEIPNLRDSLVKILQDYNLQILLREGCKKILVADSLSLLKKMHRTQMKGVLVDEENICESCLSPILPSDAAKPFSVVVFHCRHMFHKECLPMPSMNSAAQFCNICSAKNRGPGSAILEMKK

Experiment [5] addresses T4, Vps41-T146P (yeast two-hybrid fusion) (human) (UniProt P49754).
T4 sequence: T3 sequence with T146P

The target of experiment [6] is T5, Arl8b (yeast two-hybrid fusion, Arl8b-pGBKT7), Q9NVJ2.
T5 chain: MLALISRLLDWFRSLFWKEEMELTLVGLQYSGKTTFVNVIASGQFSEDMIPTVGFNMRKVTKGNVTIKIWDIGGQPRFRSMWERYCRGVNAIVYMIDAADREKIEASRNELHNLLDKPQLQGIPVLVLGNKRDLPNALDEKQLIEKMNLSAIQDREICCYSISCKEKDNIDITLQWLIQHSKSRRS
As to conditions: remark: other sources report otherwise.

Positions count from the first letter of the chain named. Results are given in words; binding and its absence hold for the method and conditions named. Some entries that bind do so weakly or less than the wild type. Tags and fused reporters may be left off the sequences shown.

B1: hVps16 (yeast two-hybrid fusion) (protein, UniProt Q9H269 1-839)
chain: MDCYTANWNPLGDSAFYRKYELYSMDWDLKEELRDCLVAAAPYGGPIALLRNPWRKEKAASVRPVLDIYSASGMPLASLLWKSGPVVSLGWSAEEELLCVQEDGAVLVYGLHGDFRRHFSMGNEVLQNRVLDARIFHTEFGSGVAILTGAHRFTLSANVGDLKLRRMPEVPGLQSAPSCWTVLCQDRVAHILLAVGPDLYLLDHAACSAVTPPGLAPGVSSFLQMAVSFTYRHLALFTDTGYIWMGTASLKEKLCEFNCNIRAPPKQMVWCSRPRSKERAVVVAWERRLMVVGDAPESIQFVLDEDSYLVPELDGVRIFSRSTHEFLHEVPAASEEIFKIASMAPGALLLEAQKEYEKESQKADEYLREIQELGQLTQAVQQCIEAAGHEHQPDMQKSLLRAASFGKCFLDRFPPDSFVHMCQDLRVLNAVRDYHIGIPLTYSQYKQLTIQVLLDRLVLRRLYPLAIQICEYLRLPEVQGVSRILAHWACYKVQQKDVSDEDVARAINQKLGDTPGVSYSDIAARAYGCGRTELAIKLLEYEPRSGEQVPLLLKMKRSKLALSKAIESGDTDLVFTVLLHLKNELNRGDFFMTLRNQPMALSLYRQFCKHQELETLKDLYNQDDNHQELGSFHIRASYAAEERIEGRVAALQTAADAFYKAKNEFAAKATEDQMRLLRLQRRLEDELGGQFLDLSLHDTVTTLILGGHNKRAEQLARDFRIPDKRLWWLKLTALADLEDWEELEKFSKSKKSPIGYLPFVEICMKQHNKYEAKKYASRVGPEQKVKALLLVGDVAQAADVAIEHRNEAELSLVLSHCTGATDGATADKIQRARAQAQKK
B1: the binding result in experiment [1] is listed as “no binding”; in experiment [2], “binds”; in experiment [3] it was “no binding”.

B2: hVps18 (yeast two-hybrid fusion) (protein, UniProt Q9P253 1-973)
chain: T1 sequence
As for B2, the binding entry is “binds” in experiment [4], “no binding” in experiment [1], “binds” in experiment [5] and “no binding” in experiment [3].

B3: hVps18 (yeast two-hybrid fusion), Q9P253 1-973 (protein)
chain: T1 sequence
For the molecule B3, the binding entry in experiment [6] is given as “no binding”.
